# PubChem BioAssay AID720711 (National Center for Advancing Translational Sciences (NCATS), 2013)
# Sequences of proteins named here, by UniProt entry; tags and fusion partners are left off.
# UniProt Q8WZA2, whole entry, looked up: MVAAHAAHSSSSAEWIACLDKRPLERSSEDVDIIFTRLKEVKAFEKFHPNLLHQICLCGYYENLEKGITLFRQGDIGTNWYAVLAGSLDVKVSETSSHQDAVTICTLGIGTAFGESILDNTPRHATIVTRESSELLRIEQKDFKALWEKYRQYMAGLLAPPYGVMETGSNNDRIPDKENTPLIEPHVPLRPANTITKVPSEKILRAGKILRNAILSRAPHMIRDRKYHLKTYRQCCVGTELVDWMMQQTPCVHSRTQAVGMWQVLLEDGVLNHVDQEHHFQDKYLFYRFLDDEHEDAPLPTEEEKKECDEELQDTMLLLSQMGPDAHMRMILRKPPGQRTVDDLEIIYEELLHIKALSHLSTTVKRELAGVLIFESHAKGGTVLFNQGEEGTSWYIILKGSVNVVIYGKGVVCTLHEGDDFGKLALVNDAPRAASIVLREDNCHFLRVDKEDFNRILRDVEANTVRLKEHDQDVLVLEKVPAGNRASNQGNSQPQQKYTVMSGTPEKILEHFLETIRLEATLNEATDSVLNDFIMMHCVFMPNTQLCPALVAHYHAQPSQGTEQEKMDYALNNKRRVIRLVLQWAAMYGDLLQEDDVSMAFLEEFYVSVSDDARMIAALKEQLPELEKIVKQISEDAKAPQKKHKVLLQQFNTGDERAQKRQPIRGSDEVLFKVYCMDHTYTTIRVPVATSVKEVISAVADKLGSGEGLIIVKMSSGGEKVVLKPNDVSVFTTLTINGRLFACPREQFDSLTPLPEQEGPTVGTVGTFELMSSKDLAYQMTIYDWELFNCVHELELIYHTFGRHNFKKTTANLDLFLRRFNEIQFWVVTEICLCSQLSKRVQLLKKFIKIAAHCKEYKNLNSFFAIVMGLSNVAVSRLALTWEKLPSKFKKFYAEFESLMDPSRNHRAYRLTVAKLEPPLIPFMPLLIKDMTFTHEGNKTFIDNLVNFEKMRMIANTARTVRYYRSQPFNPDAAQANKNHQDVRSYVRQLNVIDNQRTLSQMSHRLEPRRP
# The campaign covered roughly 360,000 compounds. About 290 (0.081%) were called active. The shares of active, inactive and inconclusive entries below differ from those in the screen. Calls follow the shape of the dose curve; as a rule, active = well fitted activation curve with a large enough effect; inconclusive = small, poorly fitted or top-dose-only effect; inactive = no such curve, though single readings can be large or run the other way. A potency beside an inconclusive call is a rough fit, not a confirmed value.
# Target: Rap guanine nucleotide exchange factor 4 (Homo sapiens) (UniProt Q8WZA2)
# Experiment: qHTS for Agonist of cAMP-regulated guanine nucleotide exchange factor 4 (EPAC2): primary screen; also: nearly all actives have a fitted effect of over 50% in size
# Conditions: biochemical qHTS; Potency: EPAC2 activation unless noted; activation: at 154 µM (top of the series), 100% = 6.5 mM cAMP response unless noted
# From the text: In multi-cellular eukaryotic organisms, the effects of cAMP are transduced by two ubiquitously-expressed intracellular cAMP receptors, the classic protein kinase A/cAMP-dependent protein kinase (PKA/cAPK) and the more recently discovered exchange protein directly activated by cAMP/cAMP-regulated guanine nucleotide exchange factor (EPAC/cAMP-GEF). Both PKA and EPAC are ubiquitously expressed in all tissues, and an increase in intracellular cAMP levels will lead to the activation of both PKA and EPAC. Therefore, careful dissections of the individual role and relative contribution of EPAC and PKA within the overall cAMP signaling in various model systems are critical for further elucidating the mechanism of cAMP signaling. To date no EPAC-specific antagonists and agonist, as well as isoform-specific agonists have been reported, and developing EPAC-specific pharmacological probes to determine the physiological functions that EPAC play in the overall cAMP-mediated signaling remains a major challenge within the research field. Furthermore, identified regulators of EPAC may lead to new mechanism-based therapeutic strategies specifically targeting the EPAC / cAMP-signaling components as EPAC has been implicated to play important roles in major human pathological conditions such as diabetes, heart disease, and cancer.
# This qHTS will be used to screen the Molecular Libraries Small Molecule Repository (MLSMR) as a concentration-titration series using the NCGC unique quantitative screening (qHTS) platform to find activators for EPAC2. In addition, this assay will also be used as a counterscreen for the EPAC1 qHTS. This fluorescent based assay is developed and validated for EPAC2 that measures exchange using EPAC effector Rap1 complex with BODIPY-GDP, a GDP analog with a tethered fluorophores. Activators are identified by monitoring the change in fluorescence signal as the exchanged free BODIPY-GDP has a reduced fluorescence compared to Rap1-bound BODIPY-GDP. […] in signal (activation) is the desired outcome for the EPAC2 agonist while no activity in this assay is desired for the EPAC1 agonist counterscreen.
# [1] de Rooij, J., Zwartkruis, F. J., Verheijen, M. H., Cool, R. H., Nijman, S. M., Wittinghofer, A., and Bos, J.L. (1998) Nature 396, 474-477
# [2] Kawasaki, H., Springett, G. M., Mochizuki, N., Toki, S., Nakaya, M., Matsuda, M., Housman, D. E., and Graybiel, A. M. (1998) Science 282, 2275-2279
# NIH Chemical Genomics Center [NCGC]
# NIH Molecular Libraries Probe Centers Network [MLPCN]
# Assay Submitter (PI): Xiaodong Cheng, The University of Texas, Medical Branch
# Briefly, three uL of reagents (100 nM EPAC2, 250 nM RAP1B-BODIPY-GDP, 50 uM GDP) were dispensed into a 1536-well Greiner black solid-bottom medium binding assay plate. Controls and test compounds (23 nL) were transferred to the plate via a Kalypsys pin tool equipped with a 1536-pin array. The plates were centrifuged at 1,000 rpm for 15 seconds followed by 5 minute incubation at room temperature. The assay plates were read at 5 minute intervals for 30 minutes in the ViewLux plate reader using 480nm excitation and 540nm emission filters. The results were normalized to the agonist positive control of 6.5 mM cAMP.
# Potency is read from the fitted curve at half-maximal effect.
Compound,activation,Potency
COC(=O)COc1ccc(/C=C2\C(=O)NC(=S)N(c3ccc(C)cc3)C2=O)cc1OC,inactive: 2.03%,
CCOc1ccccc1-n1c(O)c(C=Nc2ccc(N(CC)CC)cc2)c(=O)[nH]c1=O,,active: 100 µM
CC1(C)c2[nH]c3ccccc3c2C[C@@H]2C(=O)N(Cc3ccccc3F)C(=O)N21,,"inconclusive: 28.2 µM [activator, full curve, poor fit]"
CCc1ccc(NC2=NCCCS2)cc1,,"inconclusive: 126 µM [activator, single point]"
ClCCN(CCCl)c1ccc(C=Cc2ccncn2)cc1,inactive: 15.7%,
Cc1cc(C=C2C(=O)NC(=O)NC2=O)c(C)n1-c1ccc2c(c1)OCO2,inactive: -7.58%,
Cc1ccc(/C=C2\C(=O)NC(=O)N(Cc3ccccc3Cl)C2=O)o1,inactive: -2.11%,
COCCCn1c(N)c(C(=O)NCCC(C)C)c2nc3ccccc3nc21,inactive: -3.09%,
Oc1ccc(/C=N/NP(=S)(c2ccccc2)c2ccccc2)cc1,,"inconclusive: 112 µM [activator, partial curve]"
COC(=O)C(O)(c1ccc(N=Cc2ccccc2O)c(C)c1)C(F)(F)F (configuration not stated),inactive: 0.357%,
CCn1c(O)c(/C=N/NC(=O)c2ccncc2)c(=O)n(CC)c1=S,,"inconclusive: 20 µM [activator, full curve]"
COc1ccc(OC)c(N=Cc2c(O)n(Cc3ccccc3)c(=S)[nH]c2=O)c1,,"inconclusive: 100 µM [activator, partial curve]"
c1ccc(-c2nc(N3CCOCC3)s[n+]2-c2ccccc2)cc1,inactive: -0.0931%,
O=C(c1ccco1)c1cn(Cc2ccccc2)c2ccccc12,,"inconclusive: 50.1 µM [activator, full curve, poor fit]"
COc1ccc(N=Cc2c(O)n(Cc3ccccc3)c(=S)[nH]c2=O)c(OC)c1,,active: 100 µM
C[N+]12CCC(CC1)C(=C(c1ccccc1)c1ccccc1)C2,inactive: 0.797%,
CCn1nc(-c2ccccc2)nc2c(=O)n(C)c(=O)nc1-2,,"inconclusive: 112 µM [activator, partial curve]"
CCNC(=O)C1OC(n2cnc3c(N)ncnc32)C(O)C1O (configuration not stated),"inconclusive: 286% [activator] [at 15.6 µM, 100% = 6.5 mM cAMP response]",
COc1ccc(-n2c(O)c(/C=C/C=Nc3ccccc3)c(=O)[nH]c2=O)cc1,,"inconclusive: 126 µM [activator, single point]"
CC1CCCN(c2ccc(C(=O)N3CCC4(CC3)OCCO4)cc2[N+](=O)[O-])C1 (configuration not stated),inactive: 1.61%,
Clc1ccc(N2CCNCC2)nn1,inactive: 0.233%,
CCOC(=O)C(=O)NC1CCSC1=O (configuration not stated),inactive: -19.9%,

# Fetched by structure from above:
Compound,activation,Potency
Clc1ccc(N2CCNCC2)nn1,inactive: 0.233%,
COCCCn1c(N)c(C(=O)NCCC(C)C)c2nc3ccccc3nc21,inactive: -3.09%,
